Laboratory results: PubChem BioAssay AID1224828 (NIAID, 2016)

Test: 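Find genes required for NF-kappaB p65 moving into the nucleus after LPS in mouse macrophages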 (primary screen)
System: mouse RAW264.7 G9 macrophage reporter cells (GFP-p65, Tnf promoter-mCherry)
Reagents: siRNA pool against mouse genes, 100 nM
Timing: 2 days siRNA transfection, then 40 min LPS before fixation
Conditions: LPS (Salmonella minnesota R595) at 10 ng/ml
Detection: 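Microscopy ratio of nuclear to perinuclear-ring GFP-p65 signal, scaled to the plate median; gene score is the average of two replicate robust z-scores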
Direction: p65 translocation robust z-score: higher = more nuclear NF-kappaB p65 after LPS than the plate median; nuclear/cytoplasmic p65 ratio: higher = more nuclear NF-kappaB p65
Hit rule: 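Called active when z exceeds 3.3 or falls under -1.56 (median of Tlr4 controls), giving activity score of at least 50; no calls for control wells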
Calls: active = hit (p65 shift raised or lowered); inactive = no clear change
In all, the deposit lists about 17,000 reagents; below is a part drawn at random. In the full data, 762 (4.5%) got an active call. 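Active calls include both raised and lowered p65 entry, mostly lowered; wells with fewer than 50 cells lack a z-score.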 The raw values are shown without normalisation. Entries without a mark were called inactive.

Plekhj1
- p65 translocation robust z-score: -0.27
- nuclear/cytoplasmic p65 ratio, rep 1: 1.34
- nuclear/cytoplasmic p65 ratio, rep 2: 1.19
- low cell count flag: enough cells to score

Defb19
- p65 translocation robust z-score: 1.55
- nuclear/cytoplasmic p65 ratio, rep 1: 1.84
- nuclear/cytoplasmic p65 ratio, rep 2: 1.73
- low cell count flag: enough cells to score

Ric8a
- p65 translocation robust z-score: -0.95
- nuclear/cytoplasmic p65 ratio, rep 1: 1.49
- nuclear/cytoplasmic p65 ratio, rep 2: 1.51
- low cell count flag: enough cells to score

Fbxl12os
- p65 translocation robust z-score: 1.9
- nuclear/cytoplasmic p65 ratio, rep 1: 1.51
- nuclear/cytoplasmic p65 ratio, rep 2: 1.82
- low cell count flag: enough cells to score

Hells
- p65 translocation robust z-score: 1.79
- nuclear/cytoplasmic p65 ratio, rep 1: 2.01
- nuclear/cytoplasmic p65 ratio, rep 2: 1.71
- low cell count flag: enough cells to score

Fpgs
- p65 translocation robust z-score: 0.72
- nuclear/cytoplasmic p65 ratio, rep 1: 1.71
- nuclear/cytoplasmic p65 ratio, rep 2: 1.55
- low cell count flag: enough cells to score

Podn
- nuclear/cytoplasmic p65 ratio, rep 1: 1.19
- nuclear/cytoplasmic p65 ratio, rep 2: 0.961
- low cell count flag: fewer than 50 cells per well; well left out of scoring

Foxb2
- p65 translocation robust z-score: 2.72
- nuclear/cytoplasmic p65 ratio, rep 1: 2.08
- nuclear/cytoplasmic p65 ratio, rep 2: 1.76
- low cell count flag: enough cells to score

Semg1
- p65 translocation robust z-score: 0.09
- nuclear/cytoplasmic p65 ratio, rep 1: 1.37
- nuclear/cytoplasmic p65 ratio, rep 2: 1.29
- low cell count flag: enough cells to score

Kif5c
- p65 translocation robust z-score: -0.62
- nuclear/cytoplasmic p65 ratio, rep 1: 1.35
- nuclear/cytoplasmic p65 ratio, rep 2: 1.34
- low cell count flag: enough cells to score

Dcaf8
- p65 translocation robust z-score: 0.42
- nuclear/cytoplasmic p65 ratio, rep 1: 1.61
- nuclear/cytoplasmic p65 ratio, rep 2: 1.63
- low cell count flag: enough cells to score

Ankrd7
- p65 translocation robust z-score: -0.67
- nuclear/cytoplasmic p65 ratio, rep 1: 1.55
- nuclear/cytoplasmic p65 ratio, rep 2: 1.47
- low cell count flag: enough cells to score

Chst1
- p65 translocation robust z-score: 0.07
- nuclear/cytoplasmic p65 ratio, rep 1: 1.66
- nuclear/cytoplasmic p65 ratio, rep 2: 1.73
- low cell count flag: enough cells to score

Or8b57
- p65 translocation robust z-score: -0.75
- nuclear/cytoplasmic p65 ratio, rep 1: 1.34
- nuclear/cytoplasmic p65 ratio, rep 2: 1.07
- low cell count flag: enough cells to score

Msc
- p65 translocation robust z-score: -0.14
- nuclear/cytoplasmic p65 ratio, rep 1: 1.4
- nuclear/cytoplasmic p65 ratio, rep 2: 1.35
- low cell count flag: enough cells to score

Kdm1b
- p65 translocation robust z-score: -0.21
- nuclear/cytoplasmic p65 ratio, rep 1: 1.61
- nuclear/cytoplasmic p65 ratio, rep 2: 1.61
- low cell count flag: enough cells to score

4833408A19Rik
- nuclear/cytoplasmic p65 ratio, rep 1: 1.57
- nuclear/cytoplasmic p65 ratio, rep 2: 1.19
- low cell count flag: fewer than 50 cells per well; well left out of scoring

Or10a3b
- nuclear/cytoplasmic p65 ratio, rep 1: 1.66
- nuclear/cytoplasmic p65 ratio, rep 2: 1.37
- low cell count flag: fewer than 50 cells per well; well left out of scoring

Txn1
- p65 translocation robust z-score: -0.35
- nuclear/cytoplasmic p65 ratio, rep 1: 1.54
- nuclear/cytoplasmic p65 ratio, rep 2: 1.38
- low cell count flag: enough cells to score

Chm
- p65 translocation robust z-score: 0.05
- nuclear/cytoplasmic p65 ratio, rep 1: 1.53
- nuclear/cytoplasmic p65 ratio, rep 2: 1.33
- low cell count flag: enough cells to score

Serpinb6c
- p65 translocation robust z-score: -1.4
- nuclear/cytoplasmic p65 ratio, rep 1: 1.21
- nuclear/cytoplasmic p65 ratio, rep 2: 1.1
- low cell count flag: enough cells to score

Sorcs3
- p65 translocation robust z-score: 0.83
- nuclear/cytoplasmic p65 ratio, rep 1: 1.7
- nuclear/cytoplasmic p65 ratio, rep 2: 1.65
- low cell count flag: enough cells to score

Or4c103
- p65 translocation robust z-score: 1.2
- nuclear/cytoplasmic p65 ratio, rep 1: 1.89
- nuclear/cytoplasmic p65 ratio, rep 2: 1.71
- low cell count flag: enough cells to score

Tmem47
- p65 translocation robust z-score: -1.43
- nuclear/cytoplasmic p65 ratio, rep 1: 1.18
- nuclear/cytoplasmic p65 ratio, rep 2: 1.1
- low cell count flag: enough cells to score

Epyc
- p65 translocation robust z-score: 0.31
- nuclear/cytoplasmic p65 ratio, rep 1: 1.51
- nuclear/cytoplasmic p65 ratio, rep 2: 1.39
- low cell count flag: enough cells to score

Krt35
- p65 translocation robust z-score: 0
- nuclear/cytoplasmic p65 ratio, rep 1: 1.44
- nuclear/cytoplasmic p65 ratio, rep 2: 1.41
- low cell count flag: enough cells to score

Arf3
- p65 translocation robust z-score: -0.45
- nuclear/cytoplasmic p65 ratio, rep 1: 1.52
- nuclear/cytoplasmic p65 ratio, rep 2: 1.58
- low cell count flag: enough cells to score

3 entries from above in another layout.
target,p65 translocation robust z-score,"nuclear/cytoplasmic p65 ratio, rep 1","nuclear/cytoplasmic p65 ratio, rep 2",low cell count flag
Kif5c,-0.62,1.35,1.34,enough cells to score
Dcaf8,0.42,1.61,1.63,enough cells to score
Ankrd7,-0.67,1.55,1.47,enough cells to score
